Test results reported in patent US20070178516A1, “Self-addressable self-assembling microelectronic integrated systems, component devices, mechanisms, methods, and procedures for molecular biological analysis and diagnostics” (NANOGEN, INC., priority 1993, published 2007).
Some compounds share one wording; it may come from a single statement.

Columns and labels:
[1] = test system: ATA5 capture oligonucleotide; experiment: Electronic accumulation and hybridization of btrRCA5 in test buffers; conditions: for support of sequence specific electronic hybridization: complementary versus non-complementary capture
[2] = test system: DNA1 / PNA1 capture oligonucleotides; experiment: Hybridization of phosphodiester-linked oligonucleotides compared to PNA analogues; conditions: 50 mM buffer

Row | Compound | support of sequence specific electronic hybridization [1] | DNA:DNA electronic hybridization ([2]; 200 nA) | PNA:DNA electronic hybridization ([2]; 200 nA) | DNA:DNA electronic hybridization ([2]; 500 nA) | PNA:DNA electronic hybridization ([2]; 500 nA) | nonspecific signal as compared to the amount of material transported [1] [%] | transported (fluorescent signal present at completion of electronic targeting) ([1]; value +/− SEM, 50 mM buffer, 10 nM btrRCA5, 500 nA 30 sec)
1 | N[C@@H](CS)C(=O)O [Cysteine] | difficult to evaluate because of poor signal accumulation |  |  |  |  |  | 
2 | NCCCC(=O)O [GABA, g-amino-butyric acid] | neither GABA, b-alanine, nor glycine was capable of supporting sequence specific hybridization | no hybridization was observed | Hybridization in GABA was seen | lack of hybridization | lack of hybridization |  | 
3 | N[C@@H](Cc1c[nH]cn1)C(=O)O [Histidine] | demonstrated specific hybridization |  | occurs at roughly equal efficiencies at either current | only occurs well at 500 nA | occurs at roughly equal efficiencies at either current | 2.2 | 533 +/− 65
4 | NCC(=O)O [glycine] | neither GABA, b-alanine, nor glycine was capable of supporting sequence specific hybridization |  |  |  |  |  | 
5 | NCCC(=O)O [β-Alanine] | neither GABA, b-alanine, nor glycine was capable of supporting sequence specific hybridization |  |  |  |  |  | 
